{
  "source": "PubChem BioAssay AID504834",
  "about": "(National Center for Advancing Translational Sciences (NCATS), 2011)",
  "note": "Out of some 320,000 compounds screened, about 22,000 (6.9%) were called active. The shares of active, inactive and inconclusive entries below differ from those in the screen. Calls come from the whole dose curve; as a rule, active = well fitted inhibition curve with a large enough effect; inconclusive = small, poorly fitted or top-dose-only effect, or another doubt; inactive = no such curve, though single readings can be large or run the other way. Potencies of inconclusive entries are doubtful fits and often do not repeat. Potency is the fitted concentration of half-maximal effect.",
  "data": [
    {"assay": "Primary qHTS for delayed death inhibitors of the malarial parasite plastid, 96 hour incubation", "settings": "P. falciparum luciferase reporter growth; series mostly up to 28.7 µM", "procedure,_shortened": "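Two parasite generations (96 h, 37 C, 5% CO2) of compound exposure in infected erythrocytes (0.05% parasitemia, 2% hematocrit). Luciferase-reporter P. falciparum; decreased luminescence indicates inhibited growth, aimed at apicoplast-acting delayed death.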", "values": [
      {"smiles": "COc1ccc(CN2C(=NC(=O)COc3ccccc3)SC3CS(=O)(=O)CC32)cc1", "note": "(configuration not stated)", "Potency": "inconclusive: 10.4 µM [inhibitor, single point]"},
      {"smiles": "CN(Cc1ccccc1)C(=O)C1CCCN(c2ncnc3c2nc2n3CCCCC2)C1", "note": "(configuration not stated)", "Potency": "active: 14.7 µM"},
      {"smiles": "COC(=O)c1ccc(NC(=S)NNC(=O)c2ccccc2)cc1", "Potency": "inconclusive: 3.29 µM [inhibitor, partial curve, poor fit]"},
      {"smiles": "CC(C(=O)NC1CCCCCC1)n1cc([N+](=O)[O-])cn1", "note": "(configuration not stated)", "Potency": "inconclusive: 11.7 µM [inhibitor, single point]"},
      {"smiles": "Cc1ccccc1-c1ccc(C=Nc2c(C)n(C)n(-c3ccccc3)c2=O)o1", "Potency": "inactive"},
      {"smiles": "COc1ccc(C(C(=O)NC2CCCC2)N(Cc2cccnc2)C(=O)c2snc(C(N)=O)c2N)cc1OC", "note": "(configuration not stated)", "Potency": "inconclusive: 0.0928 µM [inhibitor, full curve, poor fit]"},
      {"smiles": "Cc1ccc(CNS(=O)(=O)c2cccc3nsnc23)cc1", "Potency": "inconclusive: 1.04 µM [inhibitor, partial curve]"},
      {"smiles": "COc1ccc(-c2ccnc3c(C(=O)O)cnn23)cc1", "Potency": "inactive"},
      {"smiles": "O=C(CSc1nnc(COc2ccccc2)n1-c1ccccc1)c1ccccc1", "Potency": "inconclusive: 18.5 µM [inhibitor, single point]"},
      {"smiles": "N#Cc1cnn2ccn(C3OC(CO)C(O)C3O)c12", "note": "(configuration not stated)", "Potency": "inactive"},
      {"smiles": "CC(=O)Oc1ccc(/C(C)=N\\N2CCN(Cc3ccc(Cl)cc3)CC2)cc1", "Potency": "inconclusive: 3.29 µM [inhibitor, single point]"},
      {"smiles": "O=C(COC(=O)CCS(=O)(=O)c1ccccc1)NC(=O)c1ccc(OC(F)F)cc1", "Potency": "inactive"},
      {"smiles": "COc1cc(C(=O)NC(C(=O)Nc2cccc(C(C)=O)c2)C(C)C)cc(OC)c1OC", "note": "(configuration not stated)", "Potency": "inconclusive: 7.38 µM [inhibitor, partial curve]"},
      {"smiles": "CCc1nnc(NC(=O)Cc2ccc(OC)c(OC)c2)s1", "Potency": "inactive"},
      {"smiles": "S=C(NCCc1ccccn1)Nc1cc(Cl)cc(Cl)c1", "Potency": "active: 13.1 µM"},
      {"smiles": "Cc1cccc(C(=O)Nc2ccc(S(=O)(=O)N3CCOCC3)cc2C)c1", "Potency": "inconclusive: 18.5 µM [inhibitor, single point]"},
      {"smiles": "COc1ccc(C(C(=O)NC(C)(C)C)N(Cc2ccco2)C(=O)CCC(=O)Nc2ccccn2)cc1", "note": "(configuration not stated)", "Potency": "inconclusive: 9.28 µM [inhibitor, partial curve]"},
      {"smiles": "CCN(C(=O)c1coc(=O)c2ccccc12)c1cc(OC)ccc1OC", "Potency": "inconclusive: 2.62 µM [inhibitor, full curve]"},
      {"smiles": "Cc1c([N+](=O)[O-])c([N+](=O)[O-])nn1CC(=O)NCCc1ccccc1", "Potency": "inconclusive: 2.62 µM [inhibitor, single point]"},
      {"smiles": "O=C1CC(SC(=Nc2ccccc2)Nc2ccccc2)C(=O)N1c1cccc2ccccc12", "note": "(configuration not stated)", "Potency": "inconclusive: 4.15 µM [inhibitor, full curve, poor fit]"},
      {"smiles": "CCC(NC(=O)COc1cc2c(c3oc(=O)c(C)c(C)c13)CCC(C)(C)O2)C(=O)O", "note": "(configuration not stated)", "Potency": "inconclusive: 4.65 µM [inhibitor, partial curve, poor fit]"},
      {"smiles": "O=C(Nc1ccccc1N1CCOCC1)C1=NN(c2c(F)c(F)cc(F)c2F)C(=O)CC1", "Potency": "inconclusive: 4.15 µM [inhibitor, single point]"},
      {"smiles": "COc1cc(OC)cc(C(=O)NCc2ccc3c(c2)cc(C)n3C)c1", "Potency": "active: 9.28 µM"},
      {"smiles": "COc1ccccc1Nc1nc(-c2sc(NC(=O)CC(C)C)nc2C)cs1", "Potency": "active: 1.85 µM"},
      {"smiles": "N#Cc1ncc(-c2ccc3c(c2)OCCOCCOCCOCCOCCO3)nc1C#N", "Potency": "active: 11.7 µM"},
      {"smiles": "c1ccc(CSc2ccc(-c3cccs3)nn2)nc1", "Potency": "inconclusive: 4.15 µM [inhibitor, full curve, poor fit]"},
      {"smiles": "CC(=O)c1cccc(N(CC(=O)NC2CCCC2)C(=O)c2csnn2)c1", "Potency": "inactive"},
      {"smiles": "CC1CCN(c2ccccc2NC(=S)NC(=O)c2ccc(-c3cccc([N+](=O)[O-])c3)o2)CC1", "Potency": "inconclusive: 2.08 µM [inhibitor, full curve, poor fit]"},
      {"smiles": "CC1(c2ccccc2)NC(=O)N(CC#N)C1=O", "note": "(configuration not stated)", "Potency": "inactive"},
      {"smiles": "CCC1(C)Cc2c(sc3nnn(CC(=O)Nc4ccccc4)c(=O)c23)CO1", "note": "(configuration not stated)", "Potency": "inconclusive: 5.22 µM [inhibitor, partial curve, poor fit]"},
      {"smiles": "NS(=O)(=O)c1ccc(CCNC(=O)CCc2nc3ccccc3s2)cc1", "Potency": "inactive"},
      {"smiles": "O=C(Cn1nc(C(F)F)cc1C1CC1)N1CCCC1", "Potency": "inconclusive: 8.28 µM [inhibitor, partial curve, poor fit]"},
      {"smiles": "CNC(=O)Oc1cccc(-c2cn3cc(Cl)ccc3n2)c1", "Potency": "inactive"},
      {"smiles": "Cc1ccc(C(=O)NN2C(=O)C3C4C=CC(C5CC45)C3C2=O)cc1", "note": "(configuration not stated)", "Potency": "inactive"},
      {"smiles": "CCOCCCn1c(C)nc2c(c1=O)c1nc3ccccc3nc1n2-c1ccc2c(c1)OCCO2", "Potency": "inconclusive: 5.22 µM [inhibitor, partial curve]"},
      {"smiles": "COc1ccccc1CNc1ccc(C(=O)O)cc1", "Potency": "inactive"},
      {"smiles": "C=CCn1c(N)cc(=O)nc1SCC(=O)Nc1ccccc1", "Potency": "inconclusive: 18.5 µM [inhibitor, single point]"},
      {"smiles": "CCN(CC)Cc1c[nH]c2ccccc12", "Potency": "active: 8.28 µM"},
      {"smiles": "COc1ccc(C2NC(C(=O)O)Cc3c2[nH]c2ccccc32)cc1CN1CCN(c2ccc(F)cc2)CC1", "note": "(configuration not stated)", "Potency": "inconclusive: 1.47 µM [inhibitor, partial curve, poor fit]"},
      {"smiles": "CCCn1cnc2cc(NCc3cccc(OC)c3O)ccc21", "Potency": "inactive"},
      {"smiles": "Cc1ccnn1Cc1cc(C(=O)O)c2ccccc2n1", "Potency": "inactive"},
      {"smiles": "Cc1ccc(NC(=O)c2noc3c2CCc2ccccc2-3)cc1", "Potency": "inactive"},
      {"smiles": "CC(C)c1ccc(C(O)P(=O)(OC2CCCCC2)OC2CCCCC2)cc1", "note": "(configuration not stated)", "Potency": "inconclusive: 10.4 µM [inhibitor, partial curve, poor fit]"},
      {"smiles": "O=C(COC(=O)COc1cccc(Br)c1)Nc1ccc(F)cc1F", "Potency": "inactive"},
      {"smiles": "COc1ccc(CC(=O)Nc2nc(-c3ccc(F)c(F)c3)cs2)cc1OC", "Potency": "inconclusive: 11.7 µM [inhibitor, partial curve, poor fit]"},
      {"smiles": "Oc1cccc(Nc2nc(-c3ccccc3)nc3ccccc23)c1", "Potency": "inactive"},
      {"smiles": "Cn1nnnc1SCc1cn2cccnc2n1", "Potency": "inconclusive: 18.5 µM [inhibitor, single point]"}
    ]}
  ]
}
